Test results reported in patent US12583855B2, “RET selective inhibitor, preparation method therefor and use thereof” (SHOUYAO HOLDINGS (BEIJING) CO., LTD., priority 2019, dated 2026).
The match of structure and compound is tentative.

How the values were obtained:
[1] = test system: TT cells; test: TT cell proliferation activity (Cell-Titer Glo); details: read-out: TT (Cell) IC50, TT human thyroid carcinoma cells, 120 h
[2] = test system: KIF5B-RET/HEK293T cells; test: Cell proliferation activity in KIF5B-RET/HEK293T cells (Cell-Titer Glo); details: read-out: KIFSB-RETV^804M/293T (Cell)IC50, 72 h

CSc1ccc(CN2CCN(c3ccc(-c4cc(-c5cnn(C)c5)cn5ncc(C#N)c45)cn3)CC2)cn1 [Example 10, 6-(1-methyl-1Hpyrazol-4-yl)-4-(6-(4-((6-(methylthio)pyridin-3-yl)methyl)piperazin-1-yl)pyridin-3-yl)pyrazolo[1,5-a]pyridine-3-carbonitrile]
IC50 [1]: 17.1 nM
IC50 [2]: 352 nM
